Source: publication PMC7817841
No constants are given. Whether binding was seen depends on the method and setting. Binding seen in cells or lysates may run through a third protein. Some binding calls cover weakened binding; strength is not graded here.

Chains of the proteins cited; added tags and fusions are not shown.
UniProt P42227: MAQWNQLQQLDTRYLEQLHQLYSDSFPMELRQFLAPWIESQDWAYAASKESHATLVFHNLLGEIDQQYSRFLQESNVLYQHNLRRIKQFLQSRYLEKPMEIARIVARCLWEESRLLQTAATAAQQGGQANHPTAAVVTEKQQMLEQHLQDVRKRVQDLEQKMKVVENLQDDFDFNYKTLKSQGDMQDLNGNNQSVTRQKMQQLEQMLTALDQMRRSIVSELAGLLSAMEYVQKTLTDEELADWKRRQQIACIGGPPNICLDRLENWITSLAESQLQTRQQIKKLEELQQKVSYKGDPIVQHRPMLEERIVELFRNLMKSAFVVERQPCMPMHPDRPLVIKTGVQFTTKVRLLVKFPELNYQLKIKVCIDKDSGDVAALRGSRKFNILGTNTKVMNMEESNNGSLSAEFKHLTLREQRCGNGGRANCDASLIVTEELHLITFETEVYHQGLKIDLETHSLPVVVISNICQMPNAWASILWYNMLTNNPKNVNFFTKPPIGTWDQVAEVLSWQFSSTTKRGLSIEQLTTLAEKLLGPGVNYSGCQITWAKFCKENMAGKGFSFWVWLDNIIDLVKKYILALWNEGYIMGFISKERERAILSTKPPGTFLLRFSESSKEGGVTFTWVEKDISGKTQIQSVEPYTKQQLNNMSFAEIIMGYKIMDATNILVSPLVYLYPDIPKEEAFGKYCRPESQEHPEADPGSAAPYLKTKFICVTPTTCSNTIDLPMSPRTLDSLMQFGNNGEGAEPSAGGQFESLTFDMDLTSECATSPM
UniProt P35710: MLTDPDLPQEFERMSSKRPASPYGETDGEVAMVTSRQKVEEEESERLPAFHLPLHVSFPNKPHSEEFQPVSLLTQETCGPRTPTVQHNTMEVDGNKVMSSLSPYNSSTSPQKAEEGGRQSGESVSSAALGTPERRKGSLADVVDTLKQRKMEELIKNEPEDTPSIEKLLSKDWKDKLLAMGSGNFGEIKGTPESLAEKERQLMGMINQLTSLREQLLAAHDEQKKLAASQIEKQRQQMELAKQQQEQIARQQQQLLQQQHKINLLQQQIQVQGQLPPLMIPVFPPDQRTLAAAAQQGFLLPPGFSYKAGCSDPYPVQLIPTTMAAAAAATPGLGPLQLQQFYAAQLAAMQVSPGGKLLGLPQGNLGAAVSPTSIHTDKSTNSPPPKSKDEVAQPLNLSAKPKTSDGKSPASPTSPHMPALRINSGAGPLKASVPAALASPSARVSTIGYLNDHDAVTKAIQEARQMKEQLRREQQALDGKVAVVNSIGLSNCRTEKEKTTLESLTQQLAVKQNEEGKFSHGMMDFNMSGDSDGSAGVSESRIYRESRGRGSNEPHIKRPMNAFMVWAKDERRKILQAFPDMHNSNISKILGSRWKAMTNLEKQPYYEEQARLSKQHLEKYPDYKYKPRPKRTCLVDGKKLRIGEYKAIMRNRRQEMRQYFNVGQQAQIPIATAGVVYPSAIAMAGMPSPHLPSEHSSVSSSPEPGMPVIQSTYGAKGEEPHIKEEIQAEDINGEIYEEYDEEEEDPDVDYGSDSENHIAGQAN

Legend:
[1] = target: HA-tagged STAT3 (signal transducer and activator of transcription 3) (UniProt P42227); test: co-IP; Hela cells co-transfected with pcDNA3.1-SOX-5 Flag and pcDNA3.1-STAT3 HA, 48 h, stimulated with PI and Biochanin A (10 uM); whole-cell lysate; IP with anti-HA antibody or control mouse IgG, IB with anti-HA or anti-Flag; lysis buffer 0.5% Triton X-100, 20 mM Hepes pH 7.4, 150 mM NaCl
[2] = target: STAT3 (signal transducer and activator of transcription 3), endogenous in Th17 cells (mouse (endogenous in Th17 cells)) (UniProt P42227); test: co-IP; whole-cell lysates of Th17 cells differentiated from naive CD4+ T cells; endogenous proteins; IP with anti-STAT3 antibody or control mouse IgG, IB with anti-SOX-5 or anti-STAT3; lysis buffer 0.5% Triton X-100, 20 mM Hepes pH 7.4, 150 mM NaCl

Substance	binding [1]	binding [2]
Flag-tagged SOX-5 (SRY-box transcription factor 5) (from UniProt P35710 1-763)	binds	
SOX-5 (SRY-box transcription factor 5), endogenous in Th17 cells (from UniProt P35710 1-763)		binds
